PubChem BioAssay AID2417 (National Center for Advancing Translational Sciences (NCATS), 2010)
About 4,300 (3.1%) of roughly 140,000 compounds were called active. Inconclusive means that the source gave no clear call. Such entries were picked first, then a sample of the others.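 The calls were made as follows: active = readout at or below -70, meaning at least 70% loss of cells showing the perinucleolar compartment, a nuclear body marking cancer cells; inconclusive = readout between -30 and a set limit; inactive = the rest.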

Test: High Content Assay for Compounds that inhibit the Assembly of the Perinucleolar Compartment;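 also: plate controls were DMSO wells for no effect and camptothecin positive control wells for full effect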
Settings: PC3M PTB-GFP, PNC prevalence imaging, 16 h; at 10 µM; hits give low values
Outline: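 Read-out is percentage of cells bearing a perinucleolar compartment, from automated 20x imaging of fixed, Hoechst-stained PC3M PTB-GFP cells. Cells were seeded 4 h, then exposed 16 h to compound (23 nl of library stock) in duplicate plates.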

SMILES	activity change (PNC), negative = inhibition
O=C(c1ccc(CNS(=O)(=O)c2ccccc2)cc1)N1CCN(c2ccccn2)CC1	inconclusive: -68.2%
COc1ccc(C(=O)c2c(C)c3cc(C)ccc3n2CC(O)CN2CCOCC2)cc1 (configuration not stated)	inconclusive: -41.9%
Cc1ccnc2nc(C(=O)NCCc3ccc(F)cc3)nn12	inactive: -8.81%
CC(C)COC(=O)N1CCCC1C(=O)O (configuration not stated)	inconclusive: -39%
Cc1ccc(CNC(=O)C2CC(c3cccc([N+](=O)[O-])c3)=NO2)cc1 (configuration not stated)	inconclusive: -41.2%
CCn1c(SCC(=O)Nc2cccc(C(C)=O)c2)nnc1C(C)C	inactive: 16.3%
O=C(Nc1ccc2c(c1)OCCO2)c1c(F)cccc1F	inconclusive: -32.7%
COC(=O)C1CCN(C(=O)COc2ccc(Cl)cc2)CC1	inactive: -7.77%
CCOC(=O)c1c(C)nc2sc3c(c2c1-c1ccc(OC)cc1)NC(c1ccccc1)NC3=O (configuration not stated)	active: -83.2%
CCOCC(=O)Nc1nc2ccc(C)cc2s1	active: -100%
NC(=O)[C@@H]1CCOc2c(F)cc([N+](=O)[O-])cc2C(=O)N[C@@H](CO)C(=O)NCC(=O)N1	inconclusive: -46.5%
CCCc1cc(C(F)(F)F)c(C#N)c(=O)[nH]1	inconclusive: -44.2%
O=C(NCCCN1CCOCC1)C(Sc1ccccc1)c1ccccc1 (configuration not stated)	inconclusive: -42.7%
CCCCn1nnnc1NCc1ccc(OC)c(OC)c1	inconclusive: -44%
Cn1c(C(=O)N2CCN(c3ncccn3)CC2)cc2c(=O)n(C)c3ccccc3c21	inconclusive: -70.6%
CC(=O)Nc1nc2cc3c(cc2s1)OCO3	inactive: 41.5%
NC(=O)c1c(-c2ccc(Cl)cc2Cl)csc1NC(=O)Cc1ccccc1	inactive: 3.45%
N#Cc1cc(C(=O)c2cc(Cl)ccc2O)cn(CC2CCCO2)c1=O (configuration not stated)	inconclusive: -37.5%
O=C(CNC(=S)NC(=O)C1CCCCC1)c1ccccc1	inactive: -20.6%
COCCn1c(SCC(=O)NNC(=O)c2ccccc2)nc2ccccc2c1=O	inconclusive: -42.4%
O=C(c1ccc(Cl)cc1)c1nnc(-c2ccncc2)o1	active: -82.1%
c1ccc2c(c1)OCC(c1nnc3n1-c1ccccc1SC3)O2 (configuration not stated)	inactive: -9.2%
O=C(c1ccc(S(=O)(=O)c2ccc(F)cc2)c([N+](=O)[O-])c1)N1CCCCCC1	active: -119%

SMILES	activity change (PNC), negative = inhibition
CCc1nc2sc3c(=O)n(N)cnc3c2c2c1COC(C)(C)C2	inactive: -18.8%
CCc1nnc2sc(-c3cc(-c4ccccc4)nc4ccccc34)nn12	inactive: -11.2%
Cn1c(=O)c2c(nc(SCCN3CCCCC3)n2Cc2ccccc2)n(C)c1=O	inconclusive: -62.2%
CCCn1c(SCc2nc(-c3cccs3)no2)nnc1-c1ccncc1	inconclusive: -74.1%
O=C(O)C(Cc1c[nH]c2ccccc12)NS(=O)(=O)c1ccc2ccccc2c1 (configuration not stated)	inconclusive: -45%
CCOC(=O)c1ccc(NC(=O)c2c(O)c3ccccc3n(C)c2=O)cc1	inconclusive: -47.4%
Cc1ccc(CC2CC(=O)N(c3ccc(Cl)cn3)C2=O)cc1 (configuration not stated)	inconclusive: -34%
CCOC(=O)c1ccc(Nc2cc(C)nc(-c3ccccc3O)n2)cc1	inconclusive: -47.1%
O=C(Cc1cccc2ccccc12)NCCC1=CCCCC1	inconclusive: -79%
COc1cc(NC(=O)COC(=O)/C=C/c2ccccc2Cl)cc(OC)c1	inconclusive: -78.8%
O=C(CSc1ncnc2c1cnn2-c1ccccc1)Nc1ccc2c(c1)OCO2	inconclusive: -42.1%
O=C(NC1CCCCC1)c1noc2c1CCCCC2	inconclusive: -73.9%
COc1ccc(CSc2nncn2N)cc1[N+](=O)[O-]	active: -89.1%
Cc1ccc(S(=O)(=O)Nc2cc(C(=O)N3CCOCC3)ccc2N2CCCCC2)cc1	inactive: 12.1%
COc1cc(C2CC(=O)NC3=C2C(=O)CC(C)(C)C3)ccc1O (configuration not stated)	inconclusive: -54.5%
Cc1cccc2cc(CN(CCCN3CCOCC3)Cc3nnnn3C(C)(C)C)c(=O)[nH]c12	inactive: 37.9%
COc1cccc(NC(=O)CNS(=O)(=O)c2ccc3nc(C)sc3c2)c1	inconclusive: -44%
O=C(Nc1ccn(-c2ccccc2)n1)c1ccc(S(=O)(=O)N2CCCCCC2)cc1	inactive: -14.5%
CS(=O)(=O)N(Cc1ccccc1)c1ccc(C(=O)NCc2ccccc2)cc1	inconclusive: -49.1%
Cc1nn2c(C(F)(F)F)cc(-c3ccc(Cl)cc3)nc2c1C(=O)N1CCOCC1	inconclusive: -44.4%
O=C(NC(=S)N1CCCc2ccccc21)c1ccc(Cl)cc1	active: -107%
COc1ccc(-c2cc(C(=O)NCCc3ccccc3)no2)cc1OC	inconclusive: -44.4%
Cc1ccccc1-n1c(SCc2c(C)noc2C)nnc1-c1cccnc1	inconclusive: -40.4%

SMILES	activity change (PNC), negative = inhibition
CCn1c(=S)[nH]c2cc(S(=O)(=O)N3CCCCC3)ccc21	inactive: -24.6%
CCOCCCNc1nc2c(c(=O)n(C)c(=O)n2C)n1CCCc1ccccc1	inactive: 4.3%
CC(=O)Nc1ccc(NC(=O)CSc2ccccn2)cc1	inconclusive: -59.2%
COc1cc(OC)c2c(c1)C(=O)OC2	inactive: 25.3%
COC(=O)c1ccccc1NC(=O)CN1CCC(n2nnc3cc(F)ccc32)CC1	inconclusive: -32.9%
CCCCCn1c(SCCC(C)C)nc2c1c(=O)[nH]c(=O)n2C	inconclusive: -43.4%
C=COC(=O)CSc1snc(SCC(=O)OC)c1C#N	inconclusive: -35.5%
Cc1cc(C)cc(-n2nnc(C(=O)NCc3ccccc3)c2N)c1	inconclusive: -62.5%
O=C(NCc1ccc2c(c1)OCO2)C1CCC(CNc2c(N3CCCC3)c(=O)c2=O)CC1 (configuration not stated)	inconclusive: -64.4%
CC/C(=C\C1CCCCC1)C(NP(=O)(c1ccccc1)c1ccccc1)c1ccccc1 (configuration not stated)	active: -89.9%
CCOc1ccc(Nc2nc(C)cc(C)c2C#N)cc1	inconclusive: -48.1%
COc1ccc(C(=O)Sc2ccc(C)cc2)cc1OC	inconclusive: -56%
Cc1cc(C)n(CNc2nc(C(F)(F)F)cs2)n1	inconclusive: -41.1%
Cc1c(NC(=S)NC(=O)C(c2ccccc2)c2ccccc2)cccc1C(=O)O	inactive: -4.74%
COc1ccc(-c2nnc3ccc(SCC(=O)NCc4ccco4)nn23)cc1OC	inactive: -5.43%
Cc1nn(CC(=O)Nc2ccc(C(=O)N3CCCC3)cc2)c(=O)c2ccccc12	inactive: -3.62%
O=C(NC(NC1CCS(=O)(=O)C1)C(=O)c1ccccc1)c1ccc(Cl)cc1 (configuration not stated)	inconclusive: -54.1%
NC(=O)c1c(Nc2nc3c(F)cccc3s2)sc2c1CCCC2	inconclusive: -38.7%
CC(=O)c1cc(C)ccc1OC(=O)c1cccc2nc(C)oc12	inconclusive: -63.2%
CCOCCCNC(=O)c1c[nH]c2ccc(C)cc2c1=O	inconclusive: -71.3%
COc1ccc(Cl)cc1NC(=O)CS(=O)(=O)c1cccc2nsnc12	inconclusive: -61.1%
COc1cc(-c2nnn(CC(=O)N3CCOCC3)n2)cc(OC)c1OC	inconclusive: -43.7%
COC(=O)C1=C(C)N=C2SC(C)C(=O)N2C1c1ccc(C(=O)OC)cc1 (configuration not stated)	inactive: -23.8%

Gathered by group, the compounds so far with a cyano group.
SMILES	activity change (PNC), negative = inhibition
CCCc1cc(C(F)(F)F)c(C#N)c(=O)[nH]1	inconclusive: -44.2%
N#Cc1cc(C(=O)c2cc(Cl)ccc2O)cn(CC2CCCO2)c1=O (configuration not stated)	inconclusive: -37.5%
C=COC(=O)CSc1snc(SCC(=O)OC)c1C#N	inconclusive: -35.5%
CCOc1ccc(Nc2nc(C)cc(C)c2C#N)cc1	inconclusive: -48.1%

Taken from above:
Value for Cc1cc(C)cc(-n2nnc(C(=O)NCc3ccccc3)c2N)c1 under activity change (PNC), negative = inhibition: inconclusive: -62.5%
Value for COc1ccc(-c2nnc3ccc(SCC(=O)NCc4ccco4)nn23)cc1OC under activity change (PNC), negative = inhibition: inactive: -5.43%

(next part)

SMILES	activity change (PNC), negative = inhibition
COc1ccc(Cl)cc1NC(=O)c1c(-c2ccccc2)noc1C	inconclusive: -47.6%
COc1cccc(OC)c1-c1nn2c(-c3ccco3)nnc2s1	inconclusive: -30.7%
CCC(=O)NC(=S)Nc1ccccc1F	inconclusive: -42.6%
CCCN1CNC(=S)N(c2cc(C)ccc2C)C1	active: -100%
CC(C)(C)C1=Nn2c(nnc2-c2ccccn2)SC1	inconclusive: -52.5%
CN(C)CCCN(C(=O)c1ccc2c(c1)CCCC2)c1nc2ccc(F)cc2s1	inconclusive: -32.7%
CCN1C(=O)/C(=C\N2CCN(c3ccccc3)CC2)SC1=S	inconclusive: -38.8%
CCOc1cc(C(=O)N2CCc3cc(OC)c(OC)cc3C2)ccc1OC(F)F	inconclusive: -74.3%
CN(C)c1ccc(N=Nc2ccccc2C(=O)OCC(=O)N(C)c2ccccc2)cc1	inconclusive: -30.1%
COc1ccc(C(=O)/C=C/c2ccc(N3CCCCC3)c([N+](=O)[O-])c2)cc1	inactive: -27.3%
C/C(=N\NC(=O)c1ccccc1)c1ccc(C)c([N+](=O)[O-])c1	inactive: -29.6%
CCOc1ccc(C(=O)NCC(=O)OCc2c(C)noc2C)cc1	inactive: 3.53%
O=c1nc2n(c3ccc(Br)cc13)CCS2	inactive: 39.4%
CCOc1ccc(NC(=O)c2cccc3c2C(=O)N(Cc2cccnc2)C3)cc1	inactive: 8.98%
O=C(NCc1ccco1)c1cccc(S(=O)(=O)N2CCOCC2)c1	inconclusive: -34.7%
O=C(CSc1nc(-c2ccccc2)c(-c2ccccc2)[nH]1)NCc1ccco1	inconclusive: -66.2%
S=c1[nH]nc(-c2ccc3ccccc3n2)n1-c1ccccc1	inconclusive: -55.1%
Cn1c(=O)[nH]c(=O)c2c1nc(NCCCn1ccnc1)n2Cc1cccc(Br)c1	active: -100%
CC(C)=CC(=O)Nc1nnc(-c2ccccc2)s1	inactive: -22.7%
COC(=O)c1ccc(O)c(Sc2cc(C(=O)OC)ccc2O)c1	inactive: 41.2%
Cc1cc2nn(-c3cccc4ccccc34)nc2cc1N	inactive: 51.6%
CCc1cc(C=NC2CCCCC2)c(O)s1	inconclusive: -58.8%
O=C(Nc1ccccn1)C(NS(=O)(=O)c1cccc2nsnc12)c1ccccc1 (configuration not stated)	inactive: 70.4%
